Results as given in PubChem BioAssay AID1259415 (National Center for Advancing Translational Sciences (NCATS), 2018).
Out of some 410,000 compounds screened, about 18,000 (4.4%) were called active. This list was built around the results that the source calls inconclusive (neither active nor inactive); the mix of calls is not that of the screen. No stated cut-off is given here; in the data, active means activity change below about -60%; inconclusive means no clear call, values can overlap the other calls; inactive means above about -39%.

Test: qHTS Assay for inhibitors of the human cytomegalovirus (HCMV)
Conditions: HFF cells, HCMV-luciferase reporter, 72 h; at 57.5 µM; hits give low values
How it was run: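 Human foreskin fibroblasts infected with luciferase-reporter HCMV at MOI 1 PFU/cell, compounds at two doses. Luciferase measured 72 h post infection; normalized to buffer-only basal and Salinomycin (10uM) controls.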
On the % scale 0 is the no-effect control and ±100 the full control effect.

SMILES | activity change, negative = inhibition
O=C(CSc1nnc(C2CCCCC2)n1Cc1ccccc1)NCc1ccco1 | inactive: -33.7%
Cc1ccc(C)c(-c2cc(C(=O)N/N=C/c3cccnc3)c3ccccc3n2)c1 | inconclusive: -50.9%
Cc1csc(NC(=O)Cc2ccc(Cl)cc2)n1 | inconclusive: -55.1%
COc1ccc(-c2csc(NC(=S)NC(=O)c3cccs3)n2)cc1Br | inconclusive: -53.2%
CC(C)(C)C(=O)N1CCN(c2ccc(NC(=O)c3ccc([N+](=O)[O-])o3)cc2)CC1 | active: -98.5%
COc1ccc(CCNC(=S)N2CCN(S(=O)(=O)c3ccc(C)cc3)CC2)cc1 | active: -98%
CCOC(=O)c1c(C)[nH]c(C(=O)CSc2nnnn2-c2ccccc2)c1C | inconclusive: -50.6%
Cn1nnnc1N=N/C(=N/Nc1ccccc1)c1ccccc1 | active: -85.7%
COc1ccc(CC(=O)Nc2nc(-c3ccccc3)c(C(C)=O)s2)cc1OC | inconclusive: -48.1%
Cc1coc2c(C)c3oc(=O)c(CCC(=O)N4C[C@H]5C[C@@H](C4)c4cccc(=O)n4C5)c(C)c3cc12 | inconclusive: -57.6%
CCN(CC)S(=O)(=O)c1cccc(C(=O)OCC(=O)NCCN2C(=O)CSC2=O)c1 | inconclusive: -45%
COC(=O)c1cc(NC(=O)C2CC2)cc(C(=O)OC)c1 | inactive: 59%
Cc1cc(C)n2nc(C(=O)OCC(=O)N(Cc3ccccc3)C(C)C)nc2n1 | inactive: -13.5%
CCC(=C(c1ccccc1)c1ccc(OCCN(C)C)cc1)c1ccccc1 | inconclusive: -51.3%
COc1ccc(NC(=O)Nc2ccccn2)cc1OC | inconclusive: -52%
COc1cc(NC(=O)c2ccc3c(c2)OCO3)c2ncccc2c1 | inactive: 8.6%
Cn1c(/C=C/c2ccccc2[N+](=O)[O-])nc2ccccc2c1=O | inactive: 6.33%
O=C(CCS(=O)(=O)c1ccc2c(c1)NC(=O)CO2)Nc1cccc(C(F)(F)F)c1 | active: -106%
CCOc1ccc(-n2c(C)nc3cc(C(=O)NCCCN4CCOCC4)ccc32)cc1 | inconclusive: -44%
COc1cc(C=O)ccc1OC(=O)N1CCOCC1 | inactive: 10.3%
COc1ccc(NC(=O)CSc2nnc(-c3cccnc3)s2)cc1 | inconclusive: -43.2%
COc1ccc(Cl)cc1CC1(C)C(=O)Nc2ccc(S(=O)(=O)NC3CCCCC3)cc21 (stereo not given) | inconclusive: -59.8%
COc1ccc(C(C)(O)c2nc(-c3ccc(N(C)C)cc3)cs2)cc1 (stereo not given) | inconclusive: -43.1%
CCCc1[nH]nc2c1C(C1CCCCC1)C(C#N)=C(N)O2 (stereo not given) | inconclusive: -46.5%
Cc1cc(NC(=O)CCN2C(=O)C3C4C=CC(C4)C3C2=O)ccc1Br (stereo not given) | active: -68.3%
COc1cc(OC)c(-c2c3cc(O)c(=O)cc-3oc3cc(O)c(O)cc23)cc1OC | inconclusive: -44.7%
COc1ccc(NC(=O)c2sc3nc(C)cc(C)c3c2N)c(OC)c1 | inconclusive: -53.2%
CCCCn1c(O)c(C(C)=NCc2cccnc2)c(=O)[nH]c1=O | inconclusive: -50.7%

A few values from the results shown.
activity change, negative = inhibition, `Cn1nnnc1N=N/C(=N/Nc1ccccc1)c1ccccc1` is entered as active: -85.7%
activity change, negative = inhibition, `COc1ccc(NC(=O)c2sc3nc(C)cc(C)c3c2N)c(OC)c1` is entered as inconclusive: -53.2%

More structures

SMILES | activity change, negative = inhibition
COc1ccc(NC(=O)CN(C)C(=O)c2cc(C3CC3)nn2-c2ccccc2)cc1 | active: -100%
CCc1cccc2c1NC(=O)C21N2CCCC2C(C(=O)c2ccc3ccccc3c2)C12C(=O)Nc1ccccc12 (stereo not given) | active: -92.9%
O=c1c2ccccc2nc(/C=C/c2ccccc2)n1-c1ccccc1F | inactive: 5.27%
Nc1cccc(-c2cc3ccccc3oc2=O)c1 | inconclusive: -50.2%
CCc1ccccc1NC(=O)COc1cccc2ccc(C)nc12 | inconclusive: -41.8%
Cc1ccccc1NC(=S)N1CCN(Cc2ccccc2)CC1 | inconclusive: -48.7%
CCc1nc2ccccc2c(C(=O)OCC(=O)NCc2ccc3c(c2)OCO3)c1C | inconclusive: -49%
COc1ccc(/C=N/NC(=O)c2ccc3nc[nH]c3c2)cc1 | inconclusive: -51.7%
CSc1ccccc1OCc1cc(C(=O)NCCCc2ccccc2)no1 | inconclusive: -43%
COc1ccc(CNC(=O)CCCc2cn(C)c3ccccc23)c(OC)c1 | inconclusive: -46.7%
Fc1cccc(Cl)c1Cn1nnc2c(-n3ccnc3)ncnc21 | inconclusive: -50%
Cc1ccc(-c2nc(SCc3ccc(Br)cc3)n3[nH]c(=O)cc3n2)cc1 | inactive: 81.8%
CCCC(=O)Nc1ccc(C(=O)NNC(=O)c2ccco2)cc1 | inactive: 18.8%
COc1ccc(CCC(=O)N2CCCc3ccccc32)cc1 | inconclusive: -50.2%
COc1ccc(-n2c(SC)nc3sc4c(c3c2=O)CCN(C)C4)cc1 | inconclusive: -42.4%
COc1ccc(NC(=O)C2=C(C)Nc3nc(SCc4ccccc4)nn3C2c2cc(OC)ccc2OC)cc1 (stereo not given) | active: -81.8%
COCCNc1nnc(Cc2ccc(Cl)cc2)c(=O)[nH]1 | inconclusive: -52.9%
C[C@H](CO)N1C[C@H](C)[C@H](CN(C)S(=O)(=O)c2cccc(F)c2)OCc2ccccc2-c2c(n(C)c3ccccc23)C1=O | inconclusive: -58.7%
COc1ccc(NC(=O)CCNS(=O)(=O)c2ccc(Br)s2)cc1 | inconclusive: -42.7%
Cc1cc(N2CCN(C(c3ccccc3)c3ccc(Cl)cc3)CC2)n2ncnc2n1 (stereo not given) | inconclusive: -42.9%
CC(C)(C)NC(=O)COC(=O)c1cc(Cl)ccc1[N+](=O)[O-] | inconclusive: -40.3%
Cc1ccc(C)c(S(=O)(=O)c2nnn3c2nc(NCc2ccc4c(c2)OCO4)c2sccc23)c1 | active: -78.6%
FC(F)Oc1ccc(NC(=S)NC2CCCCCCC2)cc1 | inconclusive: -51.7%
COc1ccc([N+](=O)[O-])cc1NC(=O)CSc1nc(C)cc(C)n1 | inconclusive: -47.7%
COc1ccccc1C(=O)N1CCCC(C)(C(=O)NS(=O)(=O)C2CC2)C1 (stereo not given) | inconclusive: -44.7%
CCOc1cc(C2c3c(oc4ccccc4c3=O)C(=O)N2c2nccs2)ccc1O (stereo not given) | inconclusive: -49.1%
COc1ccc(OCC(=O)Nc2ccc(N3CCN(C(=O)c4ccccc4C)CC3)cc2)cc1 | inconclusive: -59.6%
